# PubChem BioAssay AID1259254 | NCATS – 2017
# Assay: 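Genome-wide screen for genes that prevent DNA re-replication in cancer cells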 (primary screen)
# Cell system: human HCT116 colorectal cancer cells
# Reagent: single siRNA against human genes
# Duration: 3 days
# Detection: 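Nuclei stained with Hoechst and imaged; cell-cycle phase assigned by DNA content; G2 share scaled per plate, non-targeting siRNA 0%, GMNN siRNA 100%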
# Direction: G2 robust z-score and G2 cells, % of GMNN control: higher = more G2 cells, more excess DNA replication; raw share of cells in G2: higher = larger share of cells with G2 DNA content
# Active means: 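Active siRNAs have a G2 robust z of 5 or more median absolute deviations over the median, which in these data means about 38% or higher of GMNN control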
# Here is one part, drawn at random, of about 59,000 reagents. Of all reagents, about 1,550 (2.6%) are marked active. 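G2 share is only a proxy for re-replication; each gene was hit by three separate siRNAs, and active genes were retested.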 Raw values vary from plate to plate and are shown uncorrected. Reagents against one gene are numbered here. Not given: the amount of reagent.
gene,reagent,G2 robust z-score,"G2 cells, % of GMNN control",raw share of cells in G2 (%),Call
SRGAP3,1,0.524,6.66,7.45,inactive
SRGAP3,2,4.85,37.1,19.2,inactive
SRGAP3,3,-0.996,-4.04,1.82,inactive
HSPG2,1,0.068,3.45,4.83,inactive
HSPG2,2,-0.246,1.24,5.43,inactive
HSPG2,3,-0.585,-1.15,2.69,inactive
STMN1,1,-0.491,-0.484,4.77,inactive
STMN1,2,-0.0407,2.68,5.28,inactive
STMN1,3,0.35,5.43,5.32,inactive
ZPBP,1,0.192,4.32,6.68,inactive
ZPBP,2,0.00484,3,5.37,inactive
ZPBP,3,-0.267,1.09,3.58,inactive
C20orf202,1,-0.789,-2.58,2.87,inactive
C20orf202,2,1.52,13.7,8.95,inactive
C20orf202,3,2.01,17.1,11.9,inactive
DCT,1,-0.855,-3.05,3.05,inactive
DCT,2,-0.167,1.79,5.6,inactive
DCT,3,0.564,6.94,7.53,inactive
PRKAR2B,1,1.03,10.2,8.57,inactive
PRKAR2B,2,-0.0208,2.82,5.08,inactive
PRKAR2B,3,1.19,11.3,8.87,inactive
CPA4,1,2.93,23.6,13.8,inactive
CPA4,2,2.57,21.1,12.4,inactive
CPA4,3,-1.03,-4.29,2.31,inactive

7 of these entries, reformatted:
STMN1 #2
- G2 robust z-score: -0.0407
- G2 cells, % of GMNN control: 2.68
- raw share of cells in G2 (%): 5.28
- Call: inactive

STMN1 #3
- G2 robust z-score: 0.35
- G2 cells, % of GMNN control: 5.43
- raw share of cells in G2 (%): 5.32
- Call: inactive

ZPBP #1
- G2 robust z-score: 0.192
- G2 cells, % of GMNN control: 4.32
- raw share of cells in G2 (%): 6.68
- Call: inactive

ZPBP #2
- G2 robust z-score: 0.00484
- G2 cells, % of GMNN control: 3
- raw share of cells in G2 (%): 5.37
- Call: inactive

ZPBP #3
- G2 robust z-score: -0.267
- G2 cells, % of GMNN control: 1.09
- raw share of cells in G2 (%): 3.58
- Call: inactive

C20orf202 #1
- G2 robust z-score: -0.789
- G2 cells, % of GMNN control: -2.58
- raw share of cells in G2 (%): 2.87
- Call: inactive

C20orf202 #2
- G2 robust z-score: 1.52
- G2 cells, % of GMNN control: 13.7
- raw share of cells in G2 (%): 8.95
- Call: inactive

More reagents:
gene,reagent,G2 robust z-score,"G2 cells, % of GMNN control",raw share of cells in G2 (%),Call
NSA2,1,4.33,33.4,20.4,inactive
NSA2,2,1.31,12.2,9.02,inactive
NSA2,3,4.91,37.5,17.1,inactive
TCF15,1,-0.361,0.428,4.29,inactive
TCF15,2,-0.496,-0.525,4.8,inactive
TCF15,3,-0.461,-0.279,4.57,inactive
EEF1A1P15,1,0.973,9.81,7.37,inactive
EEF1A1P15,2,-0.432,-0.0735,3.25,inactive
EEF1A1P15,3,0.229,4.58,4.48,inactive
MYMK,1,-0.303,0.838,4.99,inactive
MYMK,2,-0.596,-1.23,3.35,inactive
MYMK,3,-0.136,2.01,4.28,inactive
AFG1L,1,-0.585,-1.15,5.41,inactive
AFG1L,2,4.14,32.1,16.4,inactive
AFG1L,3,1.63,14.5,10.8,inactive
DENR,1,-0.664,-1.7,4.38,inactive
DENR,2,-0.412,0.0659,3.92,inactive
DENR,3,2.49,20.5,10.6,inactive
M6PR,1,-1.18,-5.31,3.37,inactive
M6PR,2,1.4,12.9,7.43,inactive
M6PR,3,0.258,4.78,7.21,inactive
OR4D5,1,-0.423,-0.0107,3.19,inactive
OR4D5,2,-0.126,2.08,4.33,inactive
OR4D5,3,0.332,5.31,4.95,inactive
TMEM132A,1,-0.101,2.26,4.41,inactive
TMEM132A,2,-0.332,0.629,4.54,inactive
TMEM132A,3,-0.255,1.17,3.58,inactive
RASGRP2,1,0.0913,3.61,7.9,inactive
RASGRP2,2,3.53,27.8,12.8,inactive
RASGRP2,3,-0.0823,2.39,6.73,inactive
PPP1R1A,1,1.16,11.1,8.41,inactive
PPP1R1A,2,0.335,5.32,5.91,inactive
PPP1R1A,3,2.21,18.5,9.07,inactive
RPL10AP3,1,1.48,13.4,9.22,inactive
RPL10AP3,2,-0.164,1.82,3.68,inactive
RPL10AP3,3,-0.784,-2.55,1.66,inactive
LMOD2,1,-0.433,-0.077,3.59,inactive
LMOD2,2,1.08,10.6,7.43,inactive
LMOD2,3,-0.143,1.96,3.79,inactive
UNC93B2,1,-0.318,0.729,3.81,inactive
UNC93B2,2,-0.524,-0.722,4.49,inactive
UNC93B2,3,-0.618,-1.38,2.89,inactive
UNC93B2,4,-0.505,-0.587,2.92,inactive
UNC93B2,5,-0.488,-0.463,3.64,inactive
UNC93B2,6,0.0328,3.2,4.86,inactive
